Assay results reported in the supplement of paper PMC10849652.
The other results are listed elsewhere or left out.

Protein sequences, listed by entry. Tags and fused reporters are not part of them. Lines headed by an entry give the natural chain unless they say otherwise; changes in a name come on top.
UniProt Q70SY1: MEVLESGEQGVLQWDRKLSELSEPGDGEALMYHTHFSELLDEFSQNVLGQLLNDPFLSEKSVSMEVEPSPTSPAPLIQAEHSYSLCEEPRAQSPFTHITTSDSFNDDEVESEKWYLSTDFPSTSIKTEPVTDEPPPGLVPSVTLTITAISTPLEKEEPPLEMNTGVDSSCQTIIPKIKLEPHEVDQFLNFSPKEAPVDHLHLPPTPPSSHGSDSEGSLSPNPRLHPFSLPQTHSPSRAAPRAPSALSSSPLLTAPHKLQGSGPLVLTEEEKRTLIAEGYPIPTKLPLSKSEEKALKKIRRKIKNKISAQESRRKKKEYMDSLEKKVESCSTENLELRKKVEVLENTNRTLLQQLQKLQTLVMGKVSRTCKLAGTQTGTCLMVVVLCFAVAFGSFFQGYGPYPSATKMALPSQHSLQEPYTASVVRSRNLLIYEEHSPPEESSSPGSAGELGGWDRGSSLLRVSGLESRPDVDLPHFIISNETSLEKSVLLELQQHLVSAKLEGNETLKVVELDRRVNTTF
UniProt P68400, whole entry, looked up: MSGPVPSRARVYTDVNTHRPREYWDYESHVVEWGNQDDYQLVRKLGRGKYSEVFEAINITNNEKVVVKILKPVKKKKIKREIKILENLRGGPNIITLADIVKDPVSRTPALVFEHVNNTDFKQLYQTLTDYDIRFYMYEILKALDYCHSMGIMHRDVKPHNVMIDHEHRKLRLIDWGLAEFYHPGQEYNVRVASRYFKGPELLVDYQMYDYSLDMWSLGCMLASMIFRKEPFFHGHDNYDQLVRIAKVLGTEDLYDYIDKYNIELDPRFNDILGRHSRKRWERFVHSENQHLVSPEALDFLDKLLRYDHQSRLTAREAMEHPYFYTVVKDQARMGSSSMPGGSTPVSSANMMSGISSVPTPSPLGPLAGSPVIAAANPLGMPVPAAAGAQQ
UniProt Q86X83, whole entry, looked up: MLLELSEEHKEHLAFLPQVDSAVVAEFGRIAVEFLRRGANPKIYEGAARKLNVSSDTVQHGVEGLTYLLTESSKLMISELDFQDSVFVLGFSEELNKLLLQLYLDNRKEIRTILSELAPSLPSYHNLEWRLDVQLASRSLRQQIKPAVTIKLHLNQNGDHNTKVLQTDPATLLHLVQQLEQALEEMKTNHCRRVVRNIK
UniProt P14406, whole entry, looked up: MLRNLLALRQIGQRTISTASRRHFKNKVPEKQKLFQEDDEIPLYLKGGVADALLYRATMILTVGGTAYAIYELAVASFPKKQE
UniProt Q5RI15: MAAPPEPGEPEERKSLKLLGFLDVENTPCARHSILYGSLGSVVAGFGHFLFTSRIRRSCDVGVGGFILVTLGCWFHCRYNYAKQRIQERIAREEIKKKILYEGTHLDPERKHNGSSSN
UniProt Q92905, whole entry, looked up: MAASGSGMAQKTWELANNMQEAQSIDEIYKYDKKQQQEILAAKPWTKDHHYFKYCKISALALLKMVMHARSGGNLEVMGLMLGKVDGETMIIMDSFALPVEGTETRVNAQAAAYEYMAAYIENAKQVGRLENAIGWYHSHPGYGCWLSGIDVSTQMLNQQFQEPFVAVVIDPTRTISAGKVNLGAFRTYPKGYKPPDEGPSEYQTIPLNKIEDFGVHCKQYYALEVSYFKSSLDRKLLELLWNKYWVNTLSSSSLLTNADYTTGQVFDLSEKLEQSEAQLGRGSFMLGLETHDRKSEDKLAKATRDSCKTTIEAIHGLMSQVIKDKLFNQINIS
UniProt Q9UBI1, whole entry, looked up: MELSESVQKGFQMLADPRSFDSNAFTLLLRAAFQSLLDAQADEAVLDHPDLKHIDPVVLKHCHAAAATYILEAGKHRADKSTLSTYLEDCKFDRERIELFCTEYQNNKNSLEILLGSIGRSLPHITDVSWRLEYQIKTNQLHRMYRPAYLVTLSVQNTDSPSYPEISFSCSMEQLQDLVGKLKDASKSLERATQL
UniProt P48729: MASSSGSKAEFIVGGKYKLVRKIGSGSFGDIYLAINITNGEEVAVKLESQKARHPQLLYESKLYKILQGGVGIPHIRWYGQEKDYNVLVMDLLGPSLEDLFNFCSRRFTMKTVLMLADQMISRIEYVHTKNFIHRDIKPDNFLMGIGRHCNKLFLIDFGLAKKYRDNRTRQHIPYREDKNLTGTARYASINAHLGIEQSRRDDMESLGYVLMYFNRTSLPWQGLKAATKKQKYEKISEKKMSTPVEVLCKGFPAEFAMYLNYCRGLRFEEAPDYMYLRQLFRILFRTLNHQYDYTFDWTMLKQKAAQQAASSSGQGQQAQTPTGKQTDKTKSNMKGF
UniProt P31327: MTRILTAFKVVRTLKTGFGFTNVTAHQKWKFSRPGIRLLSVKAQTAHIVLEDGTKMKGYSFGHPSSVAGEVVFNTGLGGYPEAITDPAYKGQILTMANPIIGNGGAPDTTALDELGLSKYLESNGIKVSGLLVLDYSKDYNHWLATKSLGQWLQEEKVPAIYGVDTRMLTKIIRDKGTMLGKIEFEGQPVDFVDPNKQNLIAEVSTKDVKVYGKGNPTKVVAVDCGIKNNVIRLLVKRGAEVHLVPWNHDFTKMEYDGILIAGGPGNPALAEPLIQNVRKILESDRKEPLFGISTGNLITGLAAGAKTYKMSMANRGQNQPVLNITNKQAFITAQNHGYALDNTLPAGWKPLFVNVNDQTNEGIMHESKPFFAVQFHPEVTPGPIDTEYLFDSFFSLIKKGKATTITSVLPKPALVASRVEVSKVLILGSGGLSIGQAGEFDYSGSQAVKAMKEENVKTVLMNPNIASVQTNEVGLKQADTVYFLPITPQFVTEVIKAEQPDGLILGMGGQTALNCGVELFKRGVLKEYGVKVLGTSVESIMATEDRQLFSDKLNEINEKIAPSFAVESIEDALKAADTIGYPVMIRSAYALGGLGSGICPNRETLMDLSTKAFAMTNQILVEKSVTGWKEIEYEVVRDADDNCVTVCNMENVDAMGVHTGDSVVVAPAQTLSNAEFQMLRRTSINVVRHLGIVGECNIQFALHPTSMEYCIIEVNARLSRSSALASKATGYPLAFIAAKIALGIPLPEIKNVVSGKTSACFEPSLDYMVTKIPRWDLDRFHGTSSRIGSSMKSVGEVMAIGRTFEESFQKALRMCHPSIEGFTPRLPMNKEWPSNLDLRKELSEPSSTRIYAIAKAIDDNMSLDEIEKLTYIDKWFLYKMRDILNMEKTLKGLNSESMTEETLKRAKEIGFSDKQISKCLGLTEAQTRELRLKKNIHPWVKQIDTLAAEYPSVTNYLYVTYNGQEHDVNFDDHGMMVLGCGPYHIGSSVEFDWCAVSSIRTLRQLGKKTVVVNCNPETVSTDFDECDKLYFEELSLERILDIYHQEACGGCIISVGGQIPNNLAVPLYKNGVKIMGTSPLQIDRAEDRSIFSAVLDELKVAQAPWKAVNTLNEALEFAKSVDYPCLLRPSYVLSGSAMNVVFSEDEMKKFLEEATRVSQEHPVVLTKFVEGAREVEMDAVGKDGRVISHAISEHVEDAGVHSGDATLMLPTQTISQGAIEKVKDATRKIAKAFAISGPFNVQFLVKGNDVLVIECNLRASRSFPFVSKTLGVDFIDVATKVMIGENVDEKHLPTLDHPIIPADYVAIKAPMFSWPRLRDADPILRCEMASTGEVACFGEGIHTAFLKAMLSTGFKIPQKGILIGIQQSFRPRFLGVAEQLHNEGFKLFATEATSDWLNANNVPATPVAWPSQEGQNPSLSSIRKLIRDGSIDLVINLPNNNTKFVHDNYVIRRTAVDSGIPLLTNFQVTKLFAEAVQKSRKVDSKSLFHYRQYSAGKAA
UniProt O75390: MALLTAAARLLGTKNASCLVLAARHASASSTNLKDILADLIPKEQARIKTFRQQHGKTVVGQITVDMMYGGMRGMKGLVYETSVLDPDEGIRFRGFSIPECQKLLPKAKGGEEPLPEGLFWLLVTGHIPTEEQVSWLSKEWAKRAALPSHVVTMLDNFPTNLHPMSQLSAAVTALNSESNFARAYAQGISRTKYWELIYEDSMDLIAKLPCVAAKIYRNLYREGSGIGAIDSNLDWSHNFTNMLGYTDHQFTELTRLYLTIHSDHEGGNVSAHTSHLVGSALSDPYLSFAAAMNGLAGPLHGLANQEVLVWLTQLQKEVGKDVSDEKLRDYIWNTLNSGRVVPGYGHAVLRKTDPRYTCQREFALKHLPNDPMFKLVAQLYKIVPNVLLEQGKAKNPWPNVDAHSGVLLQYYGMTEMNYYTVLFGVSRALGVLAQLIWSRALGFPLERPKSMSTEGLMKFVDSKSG
UniProt Q9P2I0: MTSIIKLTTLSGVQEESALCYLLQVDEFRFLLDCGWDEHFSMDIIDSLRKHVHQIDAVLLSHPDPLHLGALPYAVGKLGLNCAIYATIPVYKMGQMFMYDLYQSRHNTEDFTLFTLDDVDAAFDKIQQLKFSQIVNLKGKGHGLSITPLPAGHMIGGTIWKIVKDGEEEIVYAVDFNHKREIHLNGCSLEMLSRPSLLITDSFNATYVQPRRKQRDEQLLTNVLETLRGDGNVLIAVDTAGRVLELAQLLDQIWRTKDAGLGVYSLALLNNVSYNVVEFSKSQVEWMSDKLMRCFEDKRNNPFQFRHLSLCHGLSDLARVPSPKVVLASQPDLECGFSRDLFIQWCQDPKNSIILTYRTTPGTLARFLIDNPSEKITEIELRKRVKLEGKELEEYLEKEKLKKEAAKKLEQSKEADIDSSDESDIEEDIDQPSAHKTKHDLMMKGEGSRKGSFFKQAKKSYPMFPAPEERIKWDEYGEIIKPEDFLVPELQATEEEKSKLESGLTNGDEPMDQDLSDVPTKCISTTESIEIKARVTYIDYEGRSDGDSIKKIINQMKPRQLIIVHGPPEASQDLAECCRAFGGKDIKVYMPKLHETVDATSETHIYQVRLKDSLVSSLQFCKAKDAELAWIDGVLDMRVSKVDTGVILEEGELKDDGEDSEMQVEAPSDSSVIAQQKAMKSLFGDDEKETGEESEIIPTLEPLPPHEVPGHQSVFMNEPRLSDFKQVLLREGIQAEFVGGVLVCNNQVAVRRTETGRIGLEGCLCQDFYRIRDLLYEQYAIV
UniProt Q9Y678: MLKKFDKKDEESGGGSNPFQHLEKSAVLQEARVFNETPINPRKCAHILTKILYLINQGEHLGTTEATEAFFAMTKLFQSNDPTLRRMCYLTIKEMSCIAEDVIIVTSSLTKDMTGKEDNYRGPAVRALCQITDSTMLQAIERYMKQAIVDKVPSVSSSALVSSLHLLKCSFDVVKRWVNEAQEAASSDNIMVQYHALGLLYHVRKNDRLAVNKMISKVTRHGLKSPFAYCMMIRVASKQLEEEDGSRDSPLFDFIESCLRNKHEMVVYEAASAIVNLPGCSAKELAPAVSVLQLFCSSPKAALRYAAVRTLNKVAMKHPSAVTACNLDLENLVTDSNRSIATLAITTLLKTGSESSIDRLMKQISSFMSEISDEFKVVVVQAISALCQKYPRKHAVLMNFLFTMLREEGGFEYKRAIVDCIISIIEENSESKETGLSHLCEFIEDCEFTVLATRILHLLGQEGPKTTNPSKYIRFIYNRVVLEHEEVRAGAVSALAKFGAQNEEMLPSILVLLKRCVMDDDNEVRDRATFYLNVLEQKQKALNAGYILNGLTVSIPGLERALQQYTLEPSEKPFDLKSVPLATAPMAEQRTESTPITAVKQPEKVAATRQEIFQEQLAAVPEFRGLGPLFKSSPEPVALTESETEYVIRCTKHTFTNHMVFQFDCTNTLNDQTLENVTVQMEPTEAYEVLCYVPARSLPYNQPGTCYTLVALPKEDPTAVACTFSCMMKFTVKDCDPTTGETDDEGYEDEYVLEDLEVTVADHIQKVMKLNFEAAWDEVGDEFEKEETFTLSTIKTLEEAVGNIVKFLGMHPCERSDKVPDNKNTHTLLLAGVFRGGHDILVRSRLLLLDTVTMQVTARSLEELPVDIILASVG
UniProt Q9HCH3: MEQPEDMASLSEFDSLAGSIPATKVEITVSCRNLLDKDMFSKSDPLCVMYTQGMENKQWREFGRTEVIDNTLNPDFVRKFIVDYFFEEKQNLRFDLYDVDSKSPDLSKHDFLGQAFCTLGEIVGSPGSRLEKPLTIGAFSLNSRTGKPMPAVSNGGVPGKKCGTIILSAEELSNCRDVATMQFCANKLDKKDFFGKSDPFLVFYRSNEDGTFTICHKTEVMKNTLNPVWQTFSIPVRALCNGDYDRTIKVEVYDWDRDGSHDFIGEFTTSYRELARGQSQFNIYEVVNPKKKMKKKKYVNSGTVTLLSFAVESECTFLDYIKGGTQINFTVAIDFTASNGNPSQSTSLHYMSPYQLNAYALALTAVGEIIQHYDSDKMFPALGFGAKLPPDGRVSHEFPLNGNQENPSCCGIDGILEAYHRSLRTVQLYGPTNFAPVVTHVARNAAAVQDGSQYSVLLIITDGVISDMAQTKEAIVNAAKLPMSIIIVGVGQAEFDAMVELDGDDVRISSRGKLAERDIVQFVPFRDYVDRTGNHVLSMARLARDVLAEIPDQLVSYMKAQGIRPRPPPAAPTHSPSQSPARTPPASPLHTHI
UniProt O14810: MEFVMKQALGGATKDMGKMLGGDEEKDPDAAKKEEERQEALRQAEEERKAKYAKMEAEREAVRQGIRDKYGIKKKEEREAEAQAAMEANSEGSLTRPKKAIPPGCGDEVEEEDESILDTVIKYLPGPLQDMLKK

How the values were obtained:
Experiment in all cases: log2 fold change, soluble protein after heating vs DMSO (PISA); higher = thermal stabilisation; K562 cells, 10 uM, 30 min; active = over 0.2 and 3.5 SD of the protein, either way, in both replicates (recomputed)
[1] = compound: C1=CC=C(C=C1)[C@H](COC2=CC3=C(C=C2)NC(=O)N3)NC(=O)C4=CC=CN(C4=O)CC5=CC(=C(C=C5)F)F
Procedure, shortened: (§1)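 For each measurement, 10 μM compound was applied for 30 min to K562 cells at 2×10^6 cells/mL. Aliquots were heated for 3 min across 48°C-58°C, pooled, and extracted in PBS with 0.5% NP-40 at 4°C; the supernatant after 21,000xg for 90 min was soluble protein. This was quantified by TMTpro 16plex LC-MS/MS with channel sums equalised, and thermal stability was reported relative to control samples from duplicates, on a log2 fold-change scale.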

[2] = compound: CC1=C(SC2=C1C(=N[C@H](C3=NN=C(N32)C)CC(=O)N)C4=CC=C(C=C4)Cl)C
Procedure, shortened: as §1

[3] = compound: CC1=C2C(=CC=C1)N=C(N(C2=O)C3=CC=CC=C3C)CN4C=NC5=C(N=CN=C54)N
Procedure, shortened: as §1

[4] = compound: Cc1sc2c(c1C)C(c1ccc(Cl)cc1)=N[C@@H](CC(=O)OC(C)(C)C)c1nnc(C)n1-2
Procedure, shortened: as §1

[5] = compound: c1ccc([C@@H]2C[C@H]2NC2CCNCC2)cc1
Procedure, shortened: as §1

Measured: log2 fold change

COMMD10 (UniProt Q9Y6G5)
inactive: [1] -0.023 | [2] 0.084 | [3] -0.018 | [4] -0.072 | [5] -0.074

COTL1 (UniProt Q14019)
inactive: [1] -0.055 | [2] 0.062 | [3] 0.01 | [4] -0.023 | [5] -0.041

CREBBP (UniProt Q92793)
inactive: [1] -0.019 | [2] 0.081 | [3] 0.003 | [4] -0.009 | [5] -0.019

CREB3L2 (UniProt Q70SY1)
inactive: [1] 0.331 | [2] -0.15 | [3] 0.296 | [4] -0.143 | [5] -0.247

CSNK2A1 (UniProt P68400)
inactive: [1] 0.018 | [2] 0.033 | [3] 0.018 | [4] -0.008 | [5] 0.02

CORO1C isoform 3 (UniProt Q9ULV4)
inactive: [1] 0.002 | [2] -0.013 | [3] -0.011 | [4] 0.003 | [5] -0.001

COLGALT2 (UniProt Q8IYK4)
inactive: [1] 0.061 | [2] -0.036 | [3] 0.003 | [4] 0.032 | [5] -0.035

COMMD2 (UniProt Q86X83)
inactive: [1] -0.029 | [2] 0.053 | [3] 0 | [4] -0.199 | [5] 0.04

COX7A2 (UniProt P14406)
inactive: [1] 0.021 | [2] 0.082 | [3] 0.044 | [4] -0.049 | [5] 0.064

COPG2 (UniProt Q9UBF2)
inactive: [1] -0.008 | [2] 0.056 | [3] 0.047 | [4] 0.002 | [5] -0.019

COQ5 (UniProt Q5HYK3)
inactive: [1] 0.008 | [2] 0.049 | [3] 0.064 | [4] 0.072 | [5] -0.016

COX20 isoform 2 (UniProt Q5RI15)
inactive: [1] 0.071 | [2] 0.05 | [3] 0 | [4] -0.022 | [5] 0.042

CPSF7 isoform 3 (UniProt Q8N684)
inactive: [1] 0.007 | [2] 0.013 | [3] -0.012 | [4] 0.017 | [5] -0.013

COPS5 (UniProt Q92905)
inactive: [1] -0.018 | [2] 0.041 | [3] -0.02 | [4] -0.056 | [5] -0.028

COMMD3 (UniProt Q9UBI1)
inactive: [1] -0.021 | [2] -0.028 | [3] 0.172 | [4] 0.083 | [5] 0.061

CSNK1A1 (UniProt P48729)
inactive: [1] 0.048 | [2] 0 | [3] 0.008 | [4] 0.046 | [5] 0.02

CPS1 isoform 3 (UniProt P31327)
inactive: [1] -0.143 | [2] 0.135 | [3] 0.21 | [4] 0.032 | [5] -0.228

CREG1 (UniProt O75629)
inactive: [1] 0.09 | [2] 0.027 | [3] 0.107 | [4] -0.049 | [5] -0.014

CSNK1D (UniProt P48730)
inactive: [1] -0.08 | [2] -0.067 | [3] -0.192 | [4] -0.011 | [5] -0.015

COX11 (UniProt Q9Y6N1)
inactive: [1] 0.037 | [2] 0.074 | [3] 0.026 | [4] -0.082 | [5] 0.088

CPT2 (UniProt P23786)
inactive: [1] -0.402 | [2] 0.19 | [3] 0.155 | [4] -0.017 | [5] -0.026

COQ9 (UniProt O75208)
inactive: [1] -0.068 | [2] -0.025 | [3] 0.053 | [4] -0.081 | [5] 0.036

CS (UniProt O75390)
inactive: [1] -0.043 | [2] 0.089 | [3] 0.053 | [4] -0.015 | [5] -0.016

CRMP1 isoform 2 (UniProt Q14194)
inactive: [1] -0.014 | [2] 0.074 | [3] -0.066 | [4] 0.002 | [5] -0.006

Copied from the listing (2 entries):
COX11 (UniProt Q9Y6N1)
inactive: [1] 0.037 | [2] 0.074 | [3] 0.026 | [4] -0.082 | [5] 0.088

CPT2 (UniProt P23786)
inactive: [1] -0.402 | [2] 0.19 | [3] 0.155 | [4] -0.017 | [5] -0.026

(list continues)

CROCC (UniProt Q5TZA2)
inactive: [1] -0.03 | [2] 0.03 | [3] 0.053 | [4] -0.036 | [5] -0.004

CRBN (UniProt Q96SW2)
inactive: [1] -0.004 | [2] 0.017 | [3] 0.021 | [4] -0.031 | [5] 0.143

CORO1B (UniProt Q9BR76)
inactive: [1] -0.033 | [2] 0.053 | [3] 0.09 | [4] -0.022 | [5] -0.04

COQ6 (UniProt Q9Y2Z9)
inactive: [1] 0.023 | [2] 0.047 | [3] -0.022 | [4] -0.017 | [5] -0.032

COMMD7 (UniProt Q86VX2)
inactive: [1] 0.021 | [2] -0.007 | [3] 0.069 | [4] 0.031 | [5] 0.021

CPSF2 (UniProt Q9P2I0)
inactive: [1] -0.096 | [3] 0.013 | [4] 0.101

COPG1 (UniProt Q9Y678)
inactive: [1] -0.008 | [2] 0.005 | [3] 0.031 | [4] -0.013 | [5] -0.024

COPS3 isoform 2 (UniProt Q9UNS2)
inactive: [1] 0.009 | [3] 0.2 | [4] 0.04

CPNE5 (UniProt Q9HCH3)
inactive: [2] -0.16 | [4] 0.146 | [5] -0.035

COMP (UniProt P49747)
inactive: [1] 0.03 | [2] -0.21 | [4] -0.135 | [5] 0.134

CPLX1 (UniProt O14810)
inactive: [1] 0.053 | [3] 0.067

CRAT (UniProt P43155)
inactive: [2] -0.289 | [5] -0.259

COX7B (UniProt P24311)
inactive: [1] -0.003 | [2] 0.001 | [3] 0.063 | [4] -0.018 | [5] 0.018
